Record: PubChem BioAssay AID652243 (Drosophila RNAi Screening Center, 2013)
The screen tested about 24,000 reagents; below is an unselected part of those that have a named target and a result. Over the whole deposit, 246 (1%) got an active call. 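Plates not normalised; calls are printed but the firefly/Renilla ratio behind them is not deposited; fold cut for lowering reported inconsistently.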 Raw values are not corrected between plates. The record does not give: the amount of reagent.

Test: 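Fly genes required for human androgen receptor driven transcription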 (primary screen)
Cells: Drosophila S2R+ cells
Reagents: long dsRNA against Drosophila genes
Duration: 72 h (48 h, then 24 h hormone)
Treatment: synthetic androgen R1881 at 10 nM for 24 h
Detection: 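Per-well raw luminescence of the androgen-driven firefly reporter and of the Renilla control, two replicates each, without normalisation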
Direction: firefly reporter light: higher = more light from androgen-responsive reporter; Renilla control light: higher = more constitutive control signal (cell number, transfection)
Call rule: 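Across duplicate plates, a knock-down whose log firefly/Renilla ratio shifted a set fold down or up from the GFP/LacZ control mean was a hit; the downward cut appears as both 1.5 and 3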
Calls: active = hit: reporter lowered or raised; inactive = no hit

CG14273 (GeneID 34146) [DRSC02377]
- firefly reporter light, replicate 1: 1.23e5
- firefly reporter light, replicate 2: 1.47e5
- Renilla control light, replicate 1: 2.01e6
- Renilla control light, replicate 2: 2.06e6
- outcome: inactive

CG14273 (GeneID 34146) [DRSC27247]
- firefly reporter light, replicate 1: 5.80e5
- firefly reporter light, replicate 2: 5.57e5
- Renilla control light, replicate 1: 5.01e5
- Renilla control light, replicate 2: 4.40e5
- outcome: inactive

CG32987 (GeneID 318273) [DRSC22373]
- firefly reporter light, replicate 1: 1.10e6
- firefly reporter light, replicate 2: 1.08e6
- Renilla control light, replicate 1: 1.74e6
- Renilla control light, replicate 2: 1.76e6
- outcome: inactive

CG32987 (GeneID 318273) [DRSC28687]
- firefly reporter light, replicate 1: 8.97e5
- firefly reporter light, replicate 2: 5.90e5
- Renilla control light, replicate 1: 1.83e6
- Renilla control light, replicate 2: 1.54e6
- outcome: inactive

Tbcb (GeneID 37244) [DRSC06067]
- firefly reporter light, replicate 1: 2.73e5
- firefly reporter light, replicate 2: 4.31e5
- Renilla control light, replicate 1: 6.82e5
- Renilla control light, replicate 2: 7.57e5
- outcome: inactive

TrpA1 (GeneID 39015) [DRSC10544]
- firefly reporter light, replicate 1: 1.05e5
- firefly reporter light, replicate 2: 1.56e5
- Renilla control light, replicate 1: 1.31e6
- Renilla control light, replicate 2: 1.63e6
- outcome: inactive

CG34206 (GeneID 5740129) [DRSC38661]
- firefly reporter light, replicate 1: 8.87e5
- firefly reporter light, replicate 2: 7.51e5
- Renilla control light, replicate 1: 2.09e6
- Renilla control light, replicate 2: 2.13e6
- outcome: inactive

CR33929 (GeneID 10178780) [DRSC37858]
- firefly reporter light, replicate 1: 4.49e5
- firefly reporter light, replicate 2: 3.92e5
- Renilla control light, replicate 1: 1.44e6
- Renilla control light, replicate 2: 1.73e6
- outcome: inactive

CG13385 (GeneID 34164) [DRSC02259]
- firefly reporter light, replicate 1: 2.03e5
- firefly reporter light, replicate 2: 1.63e5
- Renilla control light, replicate 1: 1.87e6
- Renilla control light, replicate 2: 1.63e6
- outcome: inactive

betaNACtes6 (GeneID 318107) [DRSC22925]
- firefly reporter light, replicate 1: 3.51e5
- firefly reporter light, replicate 2: 8.67e5
- Renilla control light, replicate 1: 8.88e5
- Renilla control light, replicate 2: 1.80e6
- outcome: inactive

betaNACtes6 (GeneID 318107) [DRSC26649]
- firefly reporter light, replicate 1: 4.50e5
- firefly reporter light, replicate 2: 3.04e5
- Renilla control light, replicate 1: 4.17e5
- Renilla control light, replicate 2: 3.27e5
- outcome: inactive

CG7156 (GeneID 42187) [DRSC16207]
- firefly reporter light, replicate 1: 90501
- firefly reporter light, replicate 2: 80964
- Renilla control light, replicate 1: 7.15e5
- Renilla control light, replicate 2: 5.67e5
- outcome: inactive

CG7156 (GeneID 42187) [DRSC27345]
- firefly reporter light, replicate 1: 2.62e5
- firefly reporter light, replicate 2: 3.06e5
- Renilla control light, replicate 1: 4.55e5
- Renilla control light, replicate 2: 6.28e5
- outcome: inactive

CG7156 (GeneID 42187) [DRSC36936]
- outcome: inactive

A run of entries taken from the entries so far, for reference:
CG34206 (GeneID 5740129) [DRSC38661]
- firefly reporter light, replicate 1: 8.87e5
- firefly reporter light, replicate 2: 7.51e5
- Renilla control light, replicate 1: 2.09e6
- Renilla control light, replicate 2: 2.13e6
- outcome: inactive

CR33929 (GeneID 10178780) [DRSC37858]
- firefly reporter light, replicate 1: 4.49e5
- firefly reporter light, replicate 2: 3.92e5
- Renilla control light, replicate 1: 1.44e6
- Renilla control light, replicate 2: 1.73e6
- outcome: inactive

CG13385 (GeneID 34164) [DRSC02259]
- firefly reporter light, replicate 1: 2.03e5
- firefly reporter light, replicate 2: 1.63e5
- Renilla control light, replicate 1: 1.87e6
- Renilla control light, replicate 2: 1.63e6
- outcome: inactive

The listing continues.
thetaTry (GeneID 36218) [DRSC07705]
- firefly reporter light, replicate 1: 2.92e5
- firefly reporter light, replicate 2: 1.80e5
- Renilla control light, replicate 1: 1.57e6
- Renilla control light, replicate 2: 1.16e6
- outcome: inactive

thetaTry (GeneID 36218) [DRSC29830]
- firefly reporter light, replicate 1: 5.18e5
- firefly reporter light, replicate 2: 5.01e5
- Renilla control light, replicate 1: 1.55e6
- Renilla control light, replicate 2: 1.98e6
- outcome: inactive

CG11060 (GeneID 35641) [DRSC06029]
- firefly reporter light, replicate 1: 1.09e6
- firefly reporter light, replicate 2: 6.85e5
- Renilla control light, replicate 1: 2.56e6
- Renilla control light, replicate 2: 2.02e6
- outcome: inactive

Tif-IA (GeneID 35454) [DRSC03717]
- firefly reporter light, replicate 1: 5.52e5
- firefly reporter light, replicate 2: 6.02e5
- Renilla control light, replicate 1: 2.52e6
- Renilla control light, replicate 2: 2.19e6
- outcome: inactive

Tif-IA (GeneID 35454) [DRSC03726]
- firefly reporter light, replicate 1: 1.96e5
- firefly reporter light, replicate 2: 2.14e5
- Renilla control light, replicate 1: 1.43e6
- Renilla control light, replicate 2: 1.46e6
- outcome: inactive

Jon99Fii (GeneID 43621) [DRSC15430]
- firefly reporter light, replicate 1: 98618
- firefly reporter light, replicate 2: 1.43e5
- Renilla control light, replicate 1: 1.51e6
- Renilla control light, replicate 2: 2.65e6
- outcome: inactive

CG14860 (GeneID 41803) [DRSC14983]
- firefly reporter light, replicate 1: 2.18e5
- firefly reporter light, replicate 2: 2.63e5
- Renilla control light, replicate 1: 3.20e6
- Renilla control light, replicate 2: 3.67e6
- outcome: inactive

CG14860 (GeneID 41803) [DRSC28932]
- firefly reporter light, replicate 1: 3.97e5
- firefly reporter light, replicate 2: 4.70e5
- Renilla control light, replicate 1: 1.26e6
- Renilla control light, replicate 2: 1.18e6
- outcome: inactive

Vps13B (GeneID 43550) [DRSC15060]
- firefly reporter light, replicate 1: 2.44e5
- firefly reporter light, replicate 2: 1.56e5
- Renilla control light, replicate 1: 2.04e6
- Renilla control light, replicate 2: 2.01e6
- outcome: inactive

Scgdelta (GeneID 31129) [DRSC18544]
- firefly reporter light, replicate 1: 4.36e5
- firefly reporter light, replicate 2: 3.50e5
- Renilla control light, replicate 1: 4.06e6
- Renilla control light, replicate 2: 3.50e6
- outcome: inactive

Tim17a1 (GeneID 41500) [DRSC14184]
- firefly reporter light, replicate 1: 2.23e5
- firefly reporter light, replicate 2: 2.51e5
- Renilla control light, replicate 1: 2.89e6
- Renilla control light, replicate 2: 2.96e6
- outcome: inactive

CG12795 (GeneID 33561) [DRSC00354]
- firefly reporter light, replicate 1: 1.57e5
- firefly reporter light, replicate 2: 1.24e5
- Renilla control light, replicate 1: 1.16e6
- Renilla control light, replicate 2: 1.39e6
- outcome: inactive

CAH16 (GeneID 50101) [DRSC15371]
- firefly reporter light, replicate 1: 1.93e5
- firefly reporter light, replicate 2: 1.64e5
- Renilla control light, replicate 1: 1.98e6
- Renilla control light, replicate 2: 2.13e6
- outcome: inactive

CAH16 (GeneID 50101) [DRSC27986]
- firefly reporter light, replicate 1: 6.64e5
- firefly reporter light, replicate 2: 5.37e5
- Renilla control light, replicate 1: 1.94e6
- Renilla control light, replicate 2: 1.63e6
- outcome: inactive
